The test relates to SH-SY5Y. Kind of test: Cytotoxicity against human SH-SY5Y cells assessed as cell viability after 48 hrs by MTS reduction assay. Type of test: functional, cell-based. In short, it runs like this:
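SH-SY5Y cells grown in DMEM with 2 mM L-glutamine, antibiotics and 10% FCS; exposed 48 h to a range of compound concentrations; viability by MTS reduction. IC50 is the mean of three experiments.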
A general note: Tetrazolium dyes change colour on reduction, which living cells bring about.

By IC50 is commonly meant the concentration needed to halve the response being measured. Take `CC[C@H](CO)Nc1nc(NCc2ccccc2)c2ncn(C(C)C)c2n1` [SELICICLIB]: the IC50 stood at 17 µM.

The values above are taken from ChEMBL document CHEMBL2086256, “Synthesis and biological evaluation of selective and potent cyclin-dependent kinase inhibitors” (Eur J Med Chem, 2012).
